# Measurements reported in PubChem BioAssay AID1224828 (NIAID, 2016).
# Screen: 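Regulators linking TLR4 signalling to p65 nuclear translocation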 (primary screen)
# System: mouse RAW264.7 G9 macrophage reporter cells (GFP-p65, Tnf promoter-mCherry)
# Reagent: siRNA pool against mouse genes, 100 nM
# Duration: 2 days siRNA transfection, then 40 min LPS before fixation
# Treatment: LPS (Salmonella minnesota R595) at 10 ng/ml
# Measured: 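Imaged p65 nuclear translocation ratio, normalised to the plate median, converted to robust z-scores and averaged across two replicates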
# Reading the numbers: p65 translocation robust z-score: higher = more nuclear NF-kappaB p65 after LPS than the plate median; nuclear/cytoplasmic p65 ratio: higher = more nuclear NF-kappaB p65
# Rule for the call: 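Active if robust z is above 3.3 (negative regulators) or below -1.56, the Tlr4 control median (positive regulators); activity score 50 or more; control wells not called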
# Meaning of the calls: active = hit (p65 shift raised or lowered); inactive = no clear change
# The deposit covers about 17,000 reagents; below is a part drawn at random. 762 of them (4.5%) were called active. 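Active calls include both raised and lowered p65 entry, mostly lowered; wells with fewer than 50 cells lack a z-score.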 Raw values are not corrected between plates. Unmarked entries are inactive. Reagent sequences are not shown.
gene,PubChem SID,p65 translocation robust z-score,"nuclear/cytoplasmic p65 ratio, rep 1","nuclear/cytoplasmic p65 ratio, rep 2",low cell count flag
Rom1 (GeneID 19881),SID315468996,-2.37 (active),1.18,1.09,enough cells to score
Defb5 (GeneID 81007),SID315475774,0.74,1.61,1.72,enough cells to score
Crebzf (GeneID 233490),SID315479085,0.22,1.54,1.54,enough cells to score
Zbtb18 (GeneID 30928),SID315470764,0.63,1.58,1.61,enough cells to score
Bccip (GeneID 66165),SID315472258,0.7,1.7,1.74,enough cells to score
Zfp677 (GeneID 210503),SID315477642,0.19,1.5,1.45,enough cells to score
Txk (GeneID 22165),SID315469886,-1,1.49,1.29,enough cells to score
Klf1 (GeneID 16596),SID315467641,1.01,1.69,1.44,enough cells to score
Cfap410 (GeneID 67884),SID315473286,0.27,1.39,1.34,enough cells to score
Sned1 (GeneID 208777),SID315477554,0.99,1.55,1.14,enough cells to score
A430057M04Rik (GeneID 319486),SID315481100,,1.17,1.26,fewer than 50 cells per well; well left out of scoring
Cox6a2 (GeneID 12862),SID315466082,-0.79,1.52,1.59,enough cells to score
Kat5 (GeneID 81601),SID315475788,-0.21,1.33,1.43,enough cells to score
Wwp1 (GeneID 107568),SID315476618,0.88,1.75,1.74,enough cells to score
Rex1bd (GeneID 66462),SID315472457,0.34,1.29,1.3,enough cells to score
Ptk2 (GeneID 14083),SID315466617,0.36,1.96,1.42,enough cells to score
Slc26a9 (GeneID 320718),SID315481382,-0.34,1.36,1.19,enough cells to score
Mtrr (GeneID 210009),SID315477622,1.05,1.53,1.52,enough cells to score
Nr5a1 (GeneID 26423),SID315470398,0.44,1.52,1.46,enough cells to score
Gabarap (GeneID 56486),SID315471567,-0.62,1.35,1.29,enough cells to score
Adk (GeneID 11534),SID315465311,0.25,1.71,1.42,enough cells to score
Fgf1 (GeneID 14164),SID315466659,0.82,1.6,1.42,enough cells to score
Or7e178 (GeneID 18315),SID315468302,0.75,1.62,1.6,enough cells to score
Dgcr8 (GeneID 94223),SID315476063,-1.51,1.38,1.3,enough cells to score
Stag2 (GeneID 20843),SID315469480,,1.27,1.43,fewer than 50 cells per well; well left out of scoring
Slc7a8 (GeneID 50934),SID315470894,0.3,1.44,1.28,enough cells to score
Vdac1 (GeneID 22333),SID315469989,,1.3,1.1,fewer than 50 cells per well; well left out of scoring
Gm9871 (GeneID 207157),SID315477470,0.66,1.6,1.45,enough cells to score
Or7a41 (GeneID 18357),SID315468323,,1.04,1.07,fewer than 50 cells per well; well left out of scoring
Or51g2 (GeneID 259113),SID315480707,1.59,1.38,1.45,enough cells to score
Or2ak5 (GeneID 258494),SID315480171,-0.29,1.51,1.44,enough cells to score
Ppp6r3 (GeneID 52036),SID315470934,0.45,1.72,1.53,enough cells to score
1810009A15Rik (GeneID 66276),SID315472335,-1.79 (active),1.13,1.22,enough cells to score
Fmr1nb (GeneID 207854),SID315477503,,1.35,1.26,fewer than 50 cells per well; well left out of scoring
Nr1d2 (GeneID 353187),SID315481705,-0.5,1.36,1.37,enough cells to score
Ear3 (GeneID 53876),SID315471119,,1.46,1.33,fewer than 50 cells per well; well left out of scoring
Anapc2 (GeneID 99152),SID315476167,0.05,1.66,1.6,enough cells to score
Rab24 (GeneID 19336),SID315468853,1.24,1.57,1.33,enough cells to score
Nxf1 (GeneID 53319),SID315471039,,0,0.944,fewer than 50 cells per well; well left out of scoring

Records above whose gene name starts with C or c (3):
gene,PubChem SID,p65 translocation robust z-score,"nuclear/cytoplasmic p65 ratio, rep 1","nuclear/cytoplasmic p65 ratio, rep 2",low cell count flag
Crebzf (GeneID 233490),SID315479085,0.22,1.54,1.54,enough cells to score
Cfap410 (GeneID 67884),SID315473286,0.27,1.39,1.34,enough cells to score
Cox6a2 (GeneID 12862),SID315466082,-0.79,1.52,1.59,enough cells to score

Additional records follow.
gene,PubChem SID,p65 translocation robust z-score,"nuclear/cytoplasmic p65 ratio, rep 1","nuclear/cytoplasmic p65 ratio, rep 2",low cell count flag
Ttc14 (GeneID 67120),SID315472847,,1.16,1.17,fewer than 50 cells per well; well left out of scoring
Adrm1 (GeneID 56436),SID315471533,,1.29,1.68,fewer than 50 cells per well; well left out of scoring
Mtmr14 (GeneID 97287),SID315476100,1.87,1.67,1.83,enough cells to score
Trib3 (GeneID 228775),SID315478655,-1.52,1.47,1.17,enough cells to score
Kcnip1 (GeneID 70357),SID315474023,-0.7,1.34,1.44,enough cells to score
Pias3 (GeneID 229615),SID315478723,-0.41,1.42,1.38,enough cells to score
Or2l13 (GeneID 259071),SID315480672,1.74,1.81,1.79,enough cells to score
Fam131b (GeneID 76156),SID315475252,,1.36,1.4,fewer than 50 cells per well; well left out of scoring
Col7a1 (GeneID 12836),SID315466065,0.81,1.61,1.45,enough cells to score
Kcnab2 (GeneID 16498),SID315467566,0.36,1.49,1.46,enough cells to score
A530016L24Rik (GeneID 319942),SID315481198,,1.03,1.32,fewer than 50 cells per well; well left out of scoring
Dpm2 (GeneID 13481),SID315466373,7.08 (active),2.02,2.25,enough cells to score
Bard1 (GeneID 12021),SID315465596,-0.62,1.54,1.5,enough cells to score
Actg2 (GeneID 11468),SID315465270,0.34,1.65,1.69,enough cells to score
Ckmt2 (GeneID 76722),SID315475367,-0.13,1.57,1.45,enough cells to score
Defb37 (GeneID 353320),SID315481715,-0.28,1.43,1.61,enough cells to score
Cd300lf (GeneID 246746),SID315479893,0.71,1.54,1.48,enough cells to score
Ecel1 (GeneID 13599),SID315466425,-0.07,1.52,1.31,enough cells to score
Sdc2 (GeneID 15529),SID315467332,-0.42,1.41,1.13,enough cells to score
Or5p79 (GeneID 258738),SID315480387,,1.21,1.09,fewer than 50 cells per well; well left out of scoring
Fn3k (GeneID 63828),SID315472038,2.36,2.09,1.66,enough cells to score
Pals1 (GeneID 56217),SID315471407,0.52,1.87,1.67,enough cells to score
Ahsg (GeneID 11625),SID315465360,-0.99,1.37,1.55,enough cells to score
Gpank1 (GeneID 81845),SID315475795,0.6,1.63,1.99,enough cells to score
Csf2ra (GeneID 12982),SID315466159,-1.78 (active),1.2,1.18,enough cells to score
Ppl (GeneID 19041),SID315468656,,1.56,1.29,fewer than 50 cells per well; well left out of scoring
Amhr2 (GeneID 110542),SID315476913,0.72,1.89,1.41,enough cells to score
Arl5c (GeneID 217151),SID315478082,,1.36,1.32,fewer than 50 cells per well; well left out of scoring
Fam151a (GeneID 230579),SID315478789,,1.42,1.67,fewer than 50 cells per well; well left out of scoring
Vps36 (GeneID 70160),SID315473984,2.31,1.57,1.67,enough cells to score
Brms1 (GeneID 107392),SID315476601,0.42,1.41,1.58,enough cells to score
Ank1 (GeneID 11733),SID315465414,1.87,1.97,1.83,enough cells to score
Or4c115 (GeneID 258902),SID315480528,2.17,2.01,1.87,enough cells to score
Trp53bp2 (GeneID 209456),SID315477597,-0.53,1.47,1.4,enough cells to score
Drgx (GeneID 107751),SID315476638,-1.04,1.18,1.16,enough cells to score
Sumo3 (GeneID 20610),SID315469348,0.37,1.44,1.29,enough cells to score
